By Tmax is commonly meant the time at which the peak concentration occurs.

Chains of the proteins cited; added tags and fusions are not shown.
UniProt P05177, whole entry: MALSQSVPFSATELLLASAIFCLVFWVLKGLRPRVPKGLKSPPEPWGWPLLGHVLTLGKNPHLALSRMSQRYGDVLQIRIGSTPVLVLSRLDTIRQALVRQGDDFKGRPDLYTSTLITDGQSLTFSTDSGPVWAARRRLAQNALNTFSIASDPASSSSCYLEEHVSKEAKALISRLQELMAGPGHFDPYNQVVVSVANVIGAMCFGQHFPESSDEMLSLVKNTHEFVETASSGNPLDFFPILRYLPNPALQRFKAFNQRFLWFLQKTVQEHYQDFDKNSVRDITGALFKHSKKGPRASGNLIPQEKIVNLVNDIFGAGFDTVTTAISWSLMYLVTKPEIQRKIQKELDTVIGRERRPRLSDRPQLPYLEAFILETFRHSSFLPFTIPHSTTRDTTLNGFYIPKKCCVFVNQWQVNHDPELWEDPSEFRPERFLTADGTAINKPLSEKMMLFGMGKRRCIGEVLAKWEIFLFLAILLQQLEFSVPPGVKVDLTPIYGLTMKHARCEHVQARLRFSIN

The text below walks through data of patent US10272082B2, “Combination ALS therapy” (Cytokinetics, Inc., priority 2011, dated 2019).

Structures are written as SMILES. Where two headings read alike, the source gives them in different places.

The conditions of series [1]: ALS patients; for riluzole AUC24 h, CK357 = 0 mg: riluzole 50 mg b.i.d. + CK-2017357 placebo; for riluzole AUC24 h, CK357 = 250 mg: riluzole 50 mg b.i.d. + single dose CK-2017357 250 mg; for riluzole AUC24 h, CK357 = 500 mg: riluzole 50 mg b.i.d. + single dose CK-2017357 500 mg.
For series [2] the following is noted: ALS patients; for increase of riluzole plasma levels by CK-2017357: across all dose levels of CK-2017357 (125, 250, 375 mg daily), riluzole 50 mg daily.
The next series in a line: clinical. The following applies: both, human, in vivo, po, healthy subjects.
In the next series the target is CYP1A2 (Homo sapiens, UniProt P05177). To be noted: in humans; cited from earlier work.

For `Nc1nc2ccc(OC(F)(F)F)cc2s1` [riluzole], the figures for the “riluzole AUC24 h, CK357 = 0 mg” value in series [1] (Max) and in series [1] (Min) were 4841.83 ng·h/mL and 307.49 ng·h/mL, respectively. In addition, the “riluzole AUC24 h, CK357 = 250 mg” value was 7371.82 ng·h/mL in series [1] (Max) and 887.4 ng·h/mL in series [1] (Min). The results for the “riluzole AUC24 h, CK357 = 500 mg” value in series [1] (Max) and in series [1] (Min) were 9116.2 ng·h/mL and 830.83 ng·h/mL, respectively. Besides, in series [1] (in the presence of CK-2017357, riluzole 50 mg BID, FIG. 3), the “change of mean riluzole Cmax” value is listed as “roughly doubled”. The “increase of riluzole plasma levels by CK-2017357” value is given as “approximately doubled” in series [2] and “approximately 2 fold” in series [2] (listed as Riluzole). Also, the “adverse events attributable to higher riluzole levels” value in series [2] (riluzole dose reduced to 50 mg daily, with CK-2017357) is “no adverse events were reported”. Besides, the time to peak (Tmax) stood at 1.1 h in the series “clinical” (50 mg, Mean, riluzole 50 mg single oral dose alone (Period 1)); 1.3 h in “clinical” (50 mg, Median, riluzole 50 mg single oral dose alone (Period 1)); 1.2 h in “clinical” (Mean, riluzole 50 mg single oral dose + steady-state CK-2017357 250 mg QD (Period 2)); 1 h in the series “clinical” (Median, riluzole 50 mg single oral dose + steady-state CK-2017357 250 mg QD (Period 2)). In addition, on CYP1A2, the primary metabolizing enzyme entry was “primarily metabolized by CYP1A2”.
